Source: US9668993B2, “Non-steroidal anti-inflammatory drug dosing regimen” (Johnson & Johnson Consumer Inc., priority 2003, dated 2017)

Experiment: typical duration of action of an immediate release dose (from product labeling)
Format: in vivo

SMILES | ATDAIRD (average therapeutic duration of action of an effective immediate release dose)
CC(C)Cc1ccc(C(C)C(=O)O)cc1 (stereo not drawn) [ibuprofen, 2-(4-isobutylphenyl)-propionic acid] | 5 h
CC(C(=O)O)c1cccc(C(=O)c2ccccc2)c1 (stereo not drawn) [ketoprofen] | 5 h
COc1ccc2cc([C@H](C)C(=O)O)ccc2c1 [naproxen] | 10 h
